The target in the assay is T1, MT1−MMPヒンジ領域ペプチド (mouse).
T1 sequence (peptide): PQPRTTSRPSVPDKPKNC
The assay can be described thus: indirect competition ELISA, hybridoma supernatant, free hinge peptide against immobilised immunogen.

No constants are given. Whether binding was seen depends on the method and setting. Some entries that bind do so weakly or less than the wild type.

B1: 抗MT1−MMP抗体MMPK9I (ハイブリドーマ19Bが産生する抗体IgG) (antibody, V domains shown)
VH: QVQLQQSGAELVRPGASVTLSCKASGYRFTDYEMHWVRQTPVHGLEWIGAIDPETGGTAYNQKFKGKATLTEDKSSSTAYMELRSLTSEDSAVYYCTTMITTALDYWGQGTSVTVSS
VL: DVLMTQTPLSLPVSLGDQASISCRSSQSIVHSDGNTYLEWYLQKPGQSPKVLIYKVSNRFSGVPDRFSGSGSGTDFTLKITRVEAEDLGVYYCFQGSHVPYTFGGGTKLEIKR
Regarding B1, the binding result is “binds”.

B2: ハイブリドーマ66Cで生成した抗体(抗体K9E) (antibody, V domains shown)
VH: QIQLVQSGPELKKPGETVKISCKASGYTFTSYALHWVKQAPGKGLKWMGWKYTNTGEPTYGDDFKGRFAFSLETSASTAYLQINNLKNEDMATYFCARGGLSSYAMDYWGQGTSVTVSS
VL: DIVMSQSPSSLAVSAGEKVTMSCKSSQSLLNSRTRKNYLAWYQQKPGQSPKLLIYWASTRESGVPDRFTGTGSGTDFTLTISSVQAEDLAVYYCKQSYNLLVTFGAGTKLELKR
B2: the binding entry is given as “binds”.

The values are drawn from patent JP2012115243A.
